Test results from patent US20060173190A1, “Nematicidal thiazoline-containing fluorobutenes” (BAYER CROPSCIENCE AG, priority 2003, published 2006).
Some results were stated once for a whole list of compounds, not compound by compound.

Test system: Meloidogyne incognita
Test: Test against Meloidogyne spp. (soil pot test)
Assay type: in vivo
Conditions: effective concentration 10 ppm in contaminated soil; tomato (variety Kurihara) in pot; after 4 weeks in greenhouse; from root knot index

SMILES: CC1CSC(SCCC=C(F)F)=N1 (racemic) [Compound 1, 2-(4′,4′-difluoro-3′-butenylthio)-4-methyl-2-thiazoline]
- controlling effect: more than 90%

SMILES: CC1CSC(SCCC(F)=C(F)F)=N1 (racemic) [Compound 5, 2-(3′,4′,4′-trifluoro-3′-butenylthio)-4-methyl-2-thiazoline]
- controlling effect: more than 90%
